Values of other authors in article PMC12297036 (Iranian Journal of Pharmaceutical Research : IJPR, 2025).

Design: method as in earlier work
Conditions: adsorption by lanthanum-loaded biochar; ref 16 (Yuan et al.)

Row | SMILES | maximum adsorption of BC-La [mg/g]
1 | CC(O)(P(=O)(O)O)P(=O)(O)O [HEDP, hydroxyethylidene diphosphonic acid] | 15.80
2 | O=P(O)(O)OP(=O)(O)O [PYP, sodium PYP] | 14.45
3 | O=P(O)(O)O[C@H]1[C@H](OP(=O)(O)O)[C@@H](OP(=O)(O)O)[C@H](OP(=O)(O)O)[C@@H](OP(=O)(O)O)[C@H]1OP(=O)(O)O [IHP, phytic acid] | 85.85
